Source: article PMC13084340
Results are given in words; binding and its absence hold for the method and conditions named. In cells and extracts the contact can be indirect. Some results given as binding are weak or reduced against the parent protein; the word gives no strength.

Chains of the proteins cited; added tags and fusions are not shown.
UniProt P33993: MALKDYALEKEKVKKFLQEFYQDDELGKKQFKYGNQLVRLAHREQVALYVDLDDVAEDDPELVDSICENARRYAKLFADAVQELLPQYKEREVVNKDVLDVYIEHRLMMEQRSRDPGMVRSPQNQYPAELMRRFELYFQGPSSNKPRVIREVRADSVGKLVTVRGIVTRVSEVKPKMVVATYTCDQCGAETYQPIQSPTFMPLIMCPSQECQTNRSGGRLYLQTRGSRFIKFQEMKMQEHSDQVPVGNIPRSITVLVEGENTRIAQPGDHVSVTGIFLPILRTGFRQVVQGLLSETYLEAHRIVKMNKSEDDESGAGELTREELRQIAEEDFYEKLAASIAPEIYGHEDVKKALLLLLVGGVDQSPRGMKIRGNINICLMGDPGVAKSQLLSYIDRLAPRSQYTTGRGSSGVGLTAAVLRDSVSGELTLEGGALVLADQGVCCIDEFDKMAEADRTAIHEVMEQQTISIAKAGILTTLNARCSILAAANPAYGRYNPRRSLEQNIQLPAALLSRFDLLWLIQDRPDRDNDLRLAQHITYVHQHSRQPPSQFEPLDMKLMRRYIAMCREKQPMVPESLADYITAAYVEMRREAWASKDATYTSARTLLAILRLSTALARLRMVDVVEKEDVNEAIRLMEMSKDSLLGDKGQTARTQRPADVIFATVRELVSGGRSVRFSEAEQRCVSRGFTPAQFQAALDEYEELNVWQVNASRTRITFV
UniProt P04233: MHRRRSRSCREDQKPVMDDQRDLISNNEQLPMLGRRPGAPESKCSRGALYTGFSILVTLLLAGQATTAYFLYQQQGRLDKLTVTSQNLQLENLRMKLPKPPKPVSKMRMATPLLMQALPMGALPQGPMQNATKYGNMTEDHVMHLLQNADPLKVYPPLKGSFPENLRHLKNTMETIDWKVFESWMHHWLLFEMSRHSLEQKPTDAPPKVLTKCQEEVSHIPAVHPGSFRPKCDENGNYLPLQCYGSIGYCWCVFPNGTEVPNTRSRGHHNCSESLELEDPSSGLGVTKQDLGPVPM

Biological target: minichromosome maintenance complex component 7 (MCM7) (human (endogenous in A549 and H1299)) (UniProt P33993)
Assay: co-IP; endogenous proteins; A549 and H1299 lysates in nondenaturing lysis buffer incubated with 3 ug anti-MCM7 antibody or normal rabbit IgG at room temperature for 2 h, Protein A/G agarose beads at 4°C for 4 h, five washes; western blot for MIF and CD74

## CD74 (from UniProt P04233 1-296) (receptor)
  binding: binds

B1: macrophage migration inhibitory factor (MIF) (protein, UniProt P14174 1-115)
chain: MPMFIVNTNVPRASVPDGFLSELTQQLAQATGKPPQYIAVHVVPDQLMAFGGSSEPCALCSLHSIGKIGGAQNRSYSKLLCGLLAERLRISPDRVYINYYDMNAANVGWNNSTFA
  binding: binds
